The results in this text go back to US20190284272A1 (published 2019).

Numbering of substitutions follows the chain as printed. No constants are given. Whether binding was seen depends on the method and setting. Binding can be weak; no strength is given.

B1: Feline 15H05 1.1 (antibody, V domains shown)
VH: QVLLVQSGAEVRTPGASVKIFCKASGYSFTSYTIHWLRQAPAQGLEWMGNINPTSGYTENNQRFKDRLTLTADTSTNTAYMELSSLRSADTAMYYCARWGFKYDGEWSFDVWGAGTTVTVSS
VL: EIQMTQSPSSLSASPGDRVTITCRASQGISIWLSWYQQKPGKVPKLLIYKASNLHIGVPSRFSGSGSGTDFTLTISSLEPEDAATYYCLQSQTYPLTFGGGTKLEIK
B2: Feline 15H05 1.1 FW1 (antibody, V domains shown)
VH: B1 VH
VL: B1 VL with E1D, T5N, P15L, R18T, V19I, I21V
B3: Feline 15H05 1.1 FW1_2 (antibody, V domains shown)
VH: B1 VH
VL: B1 VL with E1D, T5N, P15L, R18T, V19I, I21V, K42N, V43I, L46V, Y49N
B4: Feline 15H05 2.2 (antibody, V domains shown)
VH: B1 VH with S28G, L37V, A40S
VL: EITMTQSPGSLAGSPGQQVTMNCRASQGISIWLSWYQQKPGQHPKLLIYKASNLHIGVPDRFSGSGSGTDFTLTISNLQAEDVASYYCLQSQTYPLTFGGGTKLEIK
B5: Feline 15H05 1.1 FW1_3 (antibody, V domains shown)
VH: B1 VH
VL: DIQMNQSPSSLSASLGDTITVTCRASQGISIWLSWYQQKPGKVPKLLIYKASNLHIGVPPRFSGSGSGTHFTLTITSLQPEDIATYYCLQSQTYPLTFGGGTKLEIK
B6: Feline 15H05 1.1 FW3 (antibody, V domains shown)
VH: B1 VH
VL: B1 VL with S60P, D70H, S76T, E79Q, A83I
B7: Feline 15H05 3.2 (antibody, V domains shown)
VH: B1 VH with T13K, A42E
VL: B4 VL
B8: 15H05 mouse: canine chimera (antibody)
heavy: QVQLQQSAAELARPGASVKMSCKTSGYTFTSYTIHWIKQRPGQGLEWIGNINPTSGYTENNQRFKDKTTLTVDRSSNTAYLQLHSLTSEDSAVYFCARWGFKYDGEWSFDVWGAGTTVTVSSASTTAPSVFPLAPSCGSTSGSTVALACLVSGYFPEPVTVSWNSGSLTSGVHTFPSVLQSSGLYSLSSMVTVPSSRWPSETFTCNVAHPASKTKVDKPVPKRENGRVPRPPDCPKCPAPEMLGGPSVFIFPPKPKDTLLIARTPEVTCVVVDLDPEDPEVQISWFVDGKQMQTAKTQPREEQFNGTYRVVSVLPIGHQDWLKGKQFTCKVNNKALPSPIERTISKARGQAHQPSVYVLPPSREELSKNTVSLTCLIKDFFPPDIDVEWQSNGQQEPESKYRTTPPQLDEDGSYFLYSKLSVDKSRWQRGDTFICAVMHEALHNHYTQESLSHSPGK
light: DIQMNQSPSSLSASLGDTITVTCRASQGISIWLSWYQQKPGNIPKVLINKASNLHIGVPPRFSGSGSGTHFTLTITSLQPEDIATYYCLQSQTYPLTFGGGTKLEINRNDAQPAVYLFQPSPDQLHTGSASVVCLLNSFYPKDINVKWKVDGVIQDTGIQESVTEQDKDSTYSLSSTLTMSSTEYLSHELYSCEITHKSLPSTLIKSFQRSEC
B9: mouse: feline 15H05 chimera (antibody)
heavy: QVQLQQSAAELARPGASVKMSCKTSGYTFTSYTIHWIKQRPGQGLEWIGNINPTSGYTENNQRFKDKTTLTVDRSSNTAYLQLHSLTSEDSAVYFCARWGFKYDGEWSFDVWGAGTTVTVSSASTTAPSVFPLAPSCGTTSGATVALACLVLGYFPEPVTVSWNSGALTSGVHTFPAVLQASGLYSLSSMVTVPSSRWLSDTFTCNVAHPPSNTKVDKTVRKTDHPPGPKPCDCPKCPPPEAAGAPSIFIFPPKPKDTLSISRTPEVTCLVVDLGPDDSDVQITWFVDNTQVYTAKTSPREEQFNSTYRVVSVLPILHQDWLKGKEFKCKVNSKSLPSPIERTISKAKGQPHEPQVYVLPPAQEELSRNKVSVTCLIKSFHPPDIAVEWEITGQPEPENNYRTTPPQLDSDGTYFVYSKLSVDRSHWQRGNTYTCSVSHEALHSHHTQKSLTQSPGK
light: DIQMNQSPSSLSASLGDTITVTCRASQGISIWLSWYQQKPGNIPKVLINKASNLHIGVPPRFSGSGSGTHFTLTITSLQPEDIATYYCLQSQTYPLTFGGGTKLEINRSDAQPSVFLFQPSLDELHTGSASIVCILNDFYPKEVNVKWKVDGVVQNKGIQESTTEQNSKDSTYSLSSTLTMSSTEYQSHEKFSCEVTHKSLASTLVKSFQRSECQRE
B10: mouse: canine 11E12 chimera (antibody)
heavy: QVQLQQSGAELVKPGASVKLSCKASGYTFKYYDINWVRQRPEQGLEWIGWIFPGDGGTKYNETFKGKATLTTDKSSSTAYMQLSRLTSEDSAVYFCARGGTSVIRDAMDYWGQGTSVTVSSASTTAPSVFPLAPSCGSTSGSTVALACLVSGYFPEPVTVSWNSGSLTSGVHTFPSVLQSSGLYSLSSMVTVPSSRWPSETFTCNVAHPASKTKVDKPVPKRENGRVPRPPDCPKCPAPEMLGGPSVFIFPPKPKDTLLIARTPEVTCVVVDLDPEDPEVQISWFVDGKQMQTAKTQPREEQFNGTYRVVSVLPIGHQDWLKGKQFTCKVNNKALPSPIERTISKARGQAHQPSVYVLPPSREELSKNTVSLTCLIKDFFPPDIDVEWQSNGQQEPESKYRTTPPQLDEDGSYFLYSKLSVDKSRWQRGDTFICAVMHEALHNHYTQESLSHSPGK
light: DIVLTQSPASLAVSLGQRATISCRASESVDNYGISFMHWYQQKPGQPPKLLIYRASNLESGIPARFSGSGSRTDFTLTINPVETDDVATYYCQQSNKDPLTFGAGTKLELKRNDAQPAVYLFQPSPDQLHTGSASVVCLLNSFYPKDINVKWKVDGVIQDTGIQESVTEQDKDSTYSLSSTLTMSSTEYLSHELYSCEITHKSLPSTLIKSFQRSEC
B11: mouse: feline 11E12 chimera (antibody)
heavy: QVQLQQSGAELVKPGASVKLSCKASGYTFKYYDINWVRQRPEQGLEWIGWIFPGDGGTKYNETFKGKATLTTDKSSSTAYMQLSRLTSEDSAVYFCARGGTSVIRDAMDYWGQGTSVTVSSASTTAPSVFPLAPSCGTTSGATVALACLVLGYFPEPVTVSWNSGALTSGVHTFPAVLQASGLYSLSSMVTVPSSRWLSDTFTCNVAHPPSNTKVDKTVRKTDHPPGPKPCDCPKCPPPEAAGAPSIFIFPPKPKDTLSISRTPEVTCLVVDLGPDDSDVQITWFVDNTQVYTAKTSPREEQFNSTYRVVSVLPILHQDWLKGKEFKCKVNSKSLPSPIERTISKAKGQPHEPQVYVLPPAQEELSRNKVSVTCLIKSFHPPDIAVEWEITGQPEPENNYRTTPPQLDSDGTYFVYSKLSVDRSHWQRGNTYTCSVSHEALHSHHTQKSLTQSPGK
light: DIVLTQSPASLAVSLGQRATISCRASESVDNYGISFMHWYQQKPGQPPKLLIYRASNLESGIPARFSGSGSRTDFTLTINPVETDDVATYYCQQSNKDPLTFGAGTKLELKRSDAQPSVFLFQPSLDELHTGSASIVCILNDFYPKEVNVKWKVDGVVQNKGIQESTTEQNSKDSTYSLSSTLTMSSTEYQSHEKFSCEVTHKSLASTLVKSFQRSECQRE
B12: Feline 15H05 1.3 (antibody, V domains shown)
VH: B1 VH
VL: EVVLTQSSAFLSRTLKEKATITCRASQGISIWLSWYQQKPNQAPKLLVKKASNLHIGAPSRFSGSGSGTDFTLTISSPEPEDAATYYCLQSQTYPLTFGGGTKLGDQ
B13: Feline 15H05 2.1 (antibody, V domains shown)
VH: B1 VH with S28G, L37V, A40S
VL: B1 VL
B14: Feline 15H05 3.3 (antibody, V domains shown)
VH: B1 VH with T13K, A42E
VL: B12 VL
B15: Feline 15H05 1.2 (antibody, V domains shown)
VH: B1 VH
VL: B4 VL
B16: Feline 15H05 2.3 (antibody, V domains shown)
VH: B1 VH with S28G, L37V, A40S
VL: B12 VL
B17: Feline 15H05 3.1 (antibody, V domains shown)
VH: B1 VH with T13K, A42E
VL: B1 VL
B18: ZIL154 (antibody, V domains shown)
VH: EVHLVESGGDLVKPWGSLRLSCVASGFTFSDRGMSWVRQSPGKGLQWVAYIRYDGSRTDYADAVEGRFTISRDNAKNTLYLQMNSLRAEDTAVYYCARWDGSSFDYWGQGTLVTVSS
VL: DIVVTQTPLSLSVSPGETASFSCKASQSLLHSDGNTYLDWFRQKPGQSPQRLIYKVSNRDPGVPDRFSGSGSGTDFTLRISGVEADDAGLYYCMQAIHFPLTFGAGTKVELKR
notes: Recombinant fully canine IgG (65_1), HEK 293; also called CAN-ZIL154

One assay deals with canine IL-31 protein (Canine_IL31) (canine). The experiment in a line: SPR (Biacore), FIG. 2 Section C.
As for B1, the binding entry is “binds”.
B2: the binding entry is recorded as “binds”.
In the case of B3, the binding entry was “binds”.
Take B4: the binding entry is reported as “binds”.
On to B5, for which the binding entry was “binds”.
With B6, the binding entry is “binds”.
Same read-out and setting: the entry for B7 is “binds”.

The target of the next assay is wildtype feline IL-31 protein (Feline_IL31_wildtype) (feline). Kind of assay: SPR (Biacore), FIG. 2 Section C.
Consider B2, for which the binding result is “binds”.
As to B3, the binding entry is “binds”.
Regarding B5, the binding entry is “binds”.
With B6, the binding entry is listed as “binds”.

In another assay the target is canine IL-31 protein (Canine_IL31) (canine). The experiment in a line: SPR (Biacore), FIG. 2 Section A.
For the molecule B8, the binding entry is listed as “binds”.
Still for that read-out and setting: the entry for B9 is “binds”.

The next assay concerns the target wildtype feline IL-31 protein (Feline_IL31_wildtype) (feline). The experiment in a line: SPR (Biacore), FIG. 2 Section A.
Consider B8, for which the binding entry was “binds”.
On the same count and under the same terms, to B10 belongs “binds”.
Turning to B11, the binding entry is listed as “binds”.
On the same count and under the same terms, to B9 belongs “binds”.

For a further assay the target is unchanged. The experiment in a line: SPR (Biacore), FIG. 2 Sections A and C.
Turning to B1, the binding result was “binds”.
Take B12: the binding entry is listed as “binds”.
B4: the binding entry was “binds”.
Consider B13, for which the binding entry is listed as “binds”.
For the molecule B14, the binding entry is listed as “binds”.
B15: the binding entry was “binds”.
Turning to B16, the binding entry was “binds”.
The same measure, in the same setting: the entry for B17 is “binds”; for B7 it is “binds”.

The target is the same in a further assay. The experiment in a line: Biacore, IL-31 surface, single antibody concentration (FIG. 4).
As to B18, the binding entry is “binds”.
